These are yes or no findings as the source states them, for the method shown. Some entries that bind do so weakly or less than the wild type.
Target: Human TFPI (tissue factor pathway inhibitor) (human) (UniProt P10646)
Assay: SPR (Biacore T200): human TFPI amine-coupled on a CM4 or CM5 chip, Fab variant injected, dissociation followed in pH 7.4 or pH 6.0 buffer

Chains of the proteins cited; added tags and fusions are not shown. Residues count along the entry.
UniProt P10646, residues 29-304: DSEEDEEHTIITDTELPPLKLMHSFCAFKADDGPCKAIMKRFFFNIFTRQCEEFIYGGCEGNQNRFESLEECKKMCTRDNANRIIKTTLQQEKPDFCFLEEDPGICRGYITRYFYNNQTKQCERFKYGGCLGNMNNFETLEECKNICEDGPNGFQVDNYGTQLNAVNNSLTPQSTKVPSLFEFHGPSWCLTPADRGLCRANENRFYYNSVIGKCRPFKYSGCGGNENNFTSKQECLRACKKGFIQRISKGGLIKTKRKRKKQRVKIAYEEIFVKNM

B1: 2A8-g200 Fab VL-L27H (Fab, V domains shown)
VH: EVQLVESGGGLVQPGGSLRLSCAASGFTFSSYGMDWVRQAPGKGLEWVSSIRGSRGSTYYADSVKGRFTISRDNSKNTLYLQMNSLRAEDTAVYYCARLYRYWFDYWGQGTLVTVSS
VL: SYELTQPPSVSVSPGQTARITCSGDNHPKYYAHWYQQKPGQAPVVVIFYDVNRPSGIPERFSGSNSGNTATLTISGTQAMDEADYYCQAWWSSTPVFGGGTKLTVLG
notes: Member of the 2A8-g200 Fab histidine scanning library
In the case of B1, the binding is reported as “binds”.

B2: 2A8-g200 Fab VL-Y31H (Fab, V domains shown)
VH: EVQLVESGGGLVQPGGSLRLSCAASGFTFSSYGMDWVRQAPGKGLEWVSSIRGSRGSTYYADSVKGRFTISRDNSKNTLYLQMNSLRAEDTAVYYCARLYRYWFDYWGQGTLVTVSS
VL: SYELTQPPSVSVSPGQTARITCSGDNLPKYHAHWYQQKPGQAPVVVIFYDVNRPSGIPERFSGSNSGNTATLTISGTQAMDEADYYCQAWWSSTPVFGGGTKLTVLG
notes: as for B1
In the case of B2, the binding is reported as “binds”.

Source: patent US20180282430A1 (Bayer, published 2018)
